Data set [1] has as its target TopBP1 full-length (Homo sapiens) (UniProt Q92547). Briefly: EMSA. To be noted: less than 50% shifted up to 320 nM, authors say weak, EMSA: 1 nM 32P-DNA, 20 mM Tris-HCl pH 7.5, 0.1 mM EDTA, 0.2 mM DTT, 10% glycerol, 5 min at 30 C, 0.7% native agarose in 0.5x TBE, recombinant protein, residues 1-1522, label: 32P. (Mobility shift assays separate free from complexed probe on a gel.)

Amino acid sequences for entries named in this document (tags omitted).
UniProt Q92547, whole entry: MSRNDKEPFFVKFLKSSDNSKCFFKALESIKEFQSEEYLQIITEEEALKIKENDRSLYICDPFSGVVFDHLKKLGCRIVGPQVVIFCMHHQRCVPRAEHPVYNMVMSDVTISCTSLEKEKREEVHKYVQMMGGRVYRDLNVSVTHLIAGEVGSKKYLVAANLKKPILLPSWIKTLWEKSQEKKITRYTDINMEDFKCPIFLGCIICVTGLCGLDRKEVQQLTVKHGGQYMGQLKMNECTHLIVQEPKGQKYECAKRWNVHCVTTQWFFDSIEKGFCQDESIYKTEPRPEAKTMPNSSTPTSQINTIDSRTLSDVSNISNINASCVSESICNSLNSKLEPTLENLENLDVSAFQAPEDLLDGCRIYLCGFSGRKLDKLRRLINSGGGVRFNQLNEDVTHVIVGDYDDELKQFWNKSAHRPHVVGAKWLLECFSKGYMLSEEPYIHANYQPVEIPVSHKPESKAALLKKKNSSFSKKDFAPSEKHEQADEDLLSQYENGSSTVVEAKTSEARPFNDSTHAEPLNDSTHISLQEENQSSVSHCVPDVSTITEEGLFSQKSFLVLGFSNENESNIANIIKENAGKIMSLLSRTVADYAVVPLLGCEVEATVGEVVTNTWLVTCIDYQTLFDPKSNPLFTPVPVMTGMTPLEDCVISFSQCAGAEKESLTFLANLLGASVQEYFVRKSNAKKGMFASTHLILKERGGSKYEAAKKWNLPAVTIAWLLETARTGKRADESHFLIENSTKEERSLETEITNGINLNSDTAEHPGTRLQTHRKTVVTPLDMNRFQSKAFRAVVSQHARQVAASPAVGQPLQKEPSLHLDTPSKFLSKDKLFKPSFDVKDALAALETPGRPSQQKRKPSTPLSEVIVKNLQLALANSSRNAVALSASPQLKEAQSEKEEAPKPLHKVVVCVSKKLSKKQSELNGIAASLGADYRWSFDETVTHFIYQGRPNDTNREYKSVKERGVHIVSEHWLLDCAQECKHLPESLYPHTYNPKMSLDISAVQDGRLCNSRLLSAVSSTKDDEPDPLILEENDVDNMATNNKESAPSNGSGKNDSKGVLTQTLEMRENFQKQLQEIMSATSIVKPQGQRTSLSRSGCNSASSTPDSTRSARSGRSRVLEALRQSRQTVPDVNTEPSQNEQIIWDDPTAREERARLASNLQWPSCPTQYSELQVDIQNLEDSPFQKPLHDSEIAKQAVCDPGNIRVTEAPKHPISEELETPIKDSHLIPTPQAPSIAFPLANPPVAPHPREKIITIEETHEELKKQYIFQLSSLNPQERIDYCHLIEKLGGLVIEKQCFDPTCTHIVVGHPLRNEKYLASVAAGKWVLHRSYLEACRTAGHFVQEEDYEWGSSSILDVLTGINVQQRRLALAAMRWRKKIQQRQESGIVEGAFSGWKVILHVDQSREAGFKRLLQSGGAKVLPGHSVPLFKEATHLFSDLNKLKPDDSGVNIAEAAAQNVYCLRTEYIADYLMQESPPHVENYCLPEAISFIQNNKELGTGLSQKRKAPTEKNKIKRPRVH

The target in data set [2] is TopBP1 N-terminal region (Homo sapiens) (UniProt Q92547). Briefly: EMSA. The conditions noted are these: up to 320 nM protein; EMSA: 1 nM 32P-DNA, 20 mM Tris-HCl pH 7.5, 0.1 mM EDTA, 0.2 mM DTT, 10% glycerol, 5 min at 30 C, 0.7% native agarose in 0.5x TBE; recombinant protein; label: 32P; folded or branched DNA.

For part of these data: Construct, isoform or probe ends are uncertain for at least one entry. For part of these data: No signal at the amounts used counts as a negative. Where only a bound is given, the exact number is not on record here.

As to “ATGTCCTAGCAAGCCAGAATTCGGCAGCGTC (double strand) [blunt dsDNA]”, in data set [1], the half-maximal binding is greater than 320 nM.

Turning to “ATGTCCTAGCAAGCCAGAATTCGGCAGCGTCTTTTTTTTTTTTTTTTTTTTTTTTTTTTTTTTTTTTTTTTTTTTTTTTTTTTTTTTTTTTTTTTTTTTTTTTTTTTTTTTCCACGTCGGCGTCGCCACGAGC / GCTCGTGGCGACGCCGACGTGGTTTTTTTTTTTTTTTTTTTTTTTTTTTTTTTTTTTTTTTTTTTTTTTTTTTTTTTTTTTTTTTTTTTTTTTTTTTTTTTTGACGCTGCCGAATTCTGGCTTGCTAGGACAT [bubble DNA]”, the binding result in data set [2] is “no binding”.

“TTTTTTTTTTTTTTTTTTTTTTTTTTTTTTTTTTTTTTTTTTTTTTTTTTTTTTTTTTTTTTTTTTTTTTTTTTTTTTTT [ssDNA (dT80)]”: the half-maximal binding in data set [1] (single-stranded DNA) was greater than 320 nM.

The record behind these values is publication PMC5415106.
